Hit rate of the full screen: of about 330,000 compounds, about 1,000 (0.3%) were called active. Inconclusive results, whose numbers are uncertain, are shown with a selection of clear calls. The call rests on the fitted dose curve; in most records, active means well fitted inhibition curve with a large enough effect; inconclusive means small, poorly fitted or top-dose-only effect; inactive means no such curve, though single readings can be large or run the other way; tested in mouse RAW 264.7 cells. Potencies of inconclusive entries are doubtful fits and often do not repeat.
Experiment: qHTS for Inhibitors of Cell Surface uPA Generation; further: nearly all actives have a fitted effect of over 55% in size
Conditions: cell surface uPA generation assay; series mostly up to 38.3 µM
Source text: The overall objective of this project is to perform a quantitative high throughput screen (qHTS) to identify novel compounds that inhibit the generation of cell surface urokinase activity. The urokinase plasminogen activator (uPA) is one of the two primary endogenous systems that mediate plasminogen activation into plasmin. Members of this system, including uPA and its receptor (uPAR), are overexpressed in several malignant tumors. This system plays a major role in adhesion, migration, invasion and metastasis of cancer cells. Small molecule inhibitors of the uPA system will serve as probes to understand the molecular mechanisms of the uPA cascade and better understanding the microenvironmental circumstances that facilitate the activation of plasminogen by uPA, and finally may provide novel candidate agents for anticancer drug therapy.
[…] […] Upon inhibition of the uPA activation cascade, the subsequent cell surface uPA activity-dependent translocation of LF into the cytoplasm is inhibited. ATP-Lite is used to measure intracellular ATP concentrations, which remain increased if LF entry into the cytoplasm is inhibited. This validation assay was performed using a small set of validation compounds.
NIH Chemical Genomics Center [NCGC]
NIH Molecular Libraries Probe Centers Network [MLPCN]
Assay Submitter (PI): Thomas Bugge, National Institute of Dental and Craniofacial Research, NIH
Cultured RAW 264.7 were dispensed into 1536-well clear bottom, white walled tissue culture plates at a density of 4000 cells/well and were incubated overnight (12-16 h) at 37 C in a 5% CO2 incubator. Serially diluted compounds in 23 nl DMSO were added to cells. […] Compound and reagent-treated plates were incubated for 24 h at 37 C in a 5% CO2 incubator. Perkin Elmer ATPlitetrade mark 1 step (3 ul) was then added to each well. Luminescence was detected using a Perkin Elmer ViewLuxtrade mark plate reader.
1.Dispensing RAW 264.7 cells into 1536-well, white walled tissue culture plates at a density of 4000 cells/well (4 uL).
2.Incubation at 37 C in a 5% CO2 incubator overnight.
3.Serially diluting compounds (1:5 serial dilution; 0.0024 uM to […] final concentration) in 23 nl DMSO.
5.Incubating the compound and reagent-treated plates for 24 hours at 37 C in a 5% CO2 incubator.
6.Adding ATP-Lite (3 ul).
7.Reading plates by ViewLux with an exposure length of 5 seconds.
Potency means the concentration at half of the fitted maximal effect.

Question: Which Potency does the source give for `O=c1cccc2n1Cc1cc3ccccc3nc1-2` here?
Answer: active: 7.94 µM

Question: For `O=C(N/N=C/c1cccc(O)c1)c1ccc(NC(=O)c2cccc([N+](=O)[O-])c2)cc1`, which Potency is on record?
Answer: inactive

Question: For `COc1cccc(C2CC(=O)Nc3cc4c(cc32)CCC4)c1` (configuration not stated), which Potency is on record?
Answer: active: 11.2 µM

Question: Which Potency does the source give for `O=C(CSc1n[nH]c(-c2ccccc2)n1)c1ccc(O)c(O)c1` here?
Answer: inconclusive: 4.47 µM [inhibitor, partial curve]

Question: Which Potency does the source give for `CC(C)(C)c1ccc(-n2ncc3c2CCCC3NC(=O)C2=NNC(=O)CC2)cc1` (configuration not stated) here?
Answer: inconclusive: 8.91 µM [inhibitor, partial curve, poor fit]

Question: With `COc1cccc(NC(=O)c2ccccc2)c1` as the compound, how does the Potency read?
Answer: inconclusive: 10 µM [inhibitor, partial curve, poor fit]

Question: Which Potency does the source give for `COc1ccccc1C(=O)NC(=S)N1CCc2ccccc21` here?
Answer: inconclusive: 8.91 µM [inhibitor, single point]

Question: For `CCN(C(=O)COC(=O)C1CCC(C(C)(C)C)CC1)c1c(N)n(Cc2ccccc2)c(=O)[nH]c1=O` (configuration not stated), which Potency is on record?
Answer: inconclusive: 7.08 µM [inhibitor, partial curve, poor fit]

Question: With `CCCCCCOc1ccc(/C(C)=N/NC2=NCCN2)cc1` as the compound, how does the Potency read?
Answer: inconclusive: 10 µM [inhibitor, partial curve]

Question: With `Cc1ccc(S(=O)(=O)N2C[C@@H]3[C@H]4CC[C@H](C4)[C@@H]3[C@@H](C)[C@H]2c2ccn(Cc3ccccc3)c2)cc1` as the compound, how does the Potency read?
Answer: inconclusive: 7.08 µM [inhibitor, partial curve, poor fit]

Question: For `COC(=O)c1cc(=O)n(Cc2ccc3c(c2)OCO3)c(=Nc2ccc(F)c(Cl)c2)s1`, which Potency is on record?
Answer: inactive

Question: Which Potency does the source give for `CC(=O)C(C(c1ccccc1)c1c[nH]c2ccccc12)[N+](=O)[O-]` (configuration not stated) here?
Answer: inconclusive: 5.01 µM [inhibitor, single point]

Question: With `COc1ccccc1NS(=O)(=O)c1cc(C(=O)NC2CCN(Cc3ccccc3)CC2)ccc1C` as the compound, how does the Potency read?
Answer: inconclusive: 14.1 µM [inhibitor, partial curve, poor fit]

Question: With `COc1cccc2sc3cc(NCC[C@@H]4CCCN4C)ccc3c(=O)c12` as the compound, how does the Potency read?
Answer: inconclusive: 28.2 µM [inhibitor, single point]

Question: With `C[C@H](CO)N1C[C@H](C)[C@@H](CN(C)S(C)(=O)=O)Oc2c(NC(=O)C3CCCCC3)cccc2C1=O` as the compound, how does the Potency read?
Answer: inconclusive: 0.501 µM [inhibitor, partial curve, poor fit]

Question: Which Potency does the source give for `CNC(=S)Nc1ccc(N2CCCC2)c(S(=O)(=O)Nc2ccc(OC)cc2)c1` here?
Answer: inconclusive: 0.02 µM [inhibitor, partial curve, poor fit]

Question: Which Potency does the source give for `Cc1cccc(CS(=O)(=O)c2ncc(Cl)c(C(=O)NCc3ccc4c(c3)OCO4)n2)c1` here?
Answer: inconclusive: 1 µM [inhibitor, partial curve, poor fit]

Question: With `CN(C)c1ccc(C2CNC(c3ccc(Cl)c([N+](=O)[O-])c3)c3[nH]c4ccccc4c32)cc1` (configuration not stated) as the compound, how does the Potency read?
Answer: inconclusive: 11.2 µM [inhibitor, single point]

Question: With `COC(=O)c1cc(=O)n(Cc2cccs2)c(=Nc2ccc(F)cc2)s1` as the compound, how does the Potency read?
Answer: inconclusive: 6.31 µM [inhibitor, partial curve, poor fit]

Question: For `Cc1ccc(C(=O)NC2CCCCNC2=O)cc1` (configuration not stated), which Potency is on record?
Answer: inconclusive: 4.47 µM [inhibitor, partial curve, poor fit]

Question: With `CC(/C=C/c1ccccc1)=N\NC(=O)CCc1ccccc1` as the compound, how does the Potency read?
Answer: inactive

Question: Which Potency does the source give for `CCCCc1ccc(NC(=O)Nc2cnccn2)cc1` here?
Answer: inconclusive: 10 µM [inhibitor, single point]

Question: Which Potency does the source give for `COc1ccc(CN2CCN(C(=O)c3ccc(S(=O)(=O)NCc4ccco4)cc3)CC2)cc1F` here?
Answer: inconclusive: 6.31 µM [inhibitor, partial curve]

Question: For `Oc1ccc(N=Nc2ccc3c(c2)OCCO3)c2ncccc12`, which Potency is on record?
Answer: inconclusive: 10 µM [inhibitor, single point]

Question: Which Potency does the source give for `Oc1cccc2ccc[n+](CC(O)Cn3c4ccccc4c4ccccc43)c12` (configuration not stated) here?
Answer: inactive

Question: For `CC(=O)c1ccc2c(c1)N(CCCN1CCC(CCO)CC1)c1ccccc1S2`, which Potency is on record?
Answer: inconclusive: 10 µM [inhibitor, partial curve, poor fit]

Question: For `CN(C(=O)COC(=O)CNC(=O)c1ccccc1F)C1CCCCC1`, which Potency is on record?
Answer: inactive

Question: Which Potency does the source give for `Cc1ccc(S(=O)(=O)N(Cc2ccccc2)c2ccccc2C(=O)Nc2ccccc2C(=O)NCc2ccco2)cc1` here?
Answer: inconclusive: 14.1 µM [inhibitor, partial curve, poor fit]

Question: Which Potency does the source give for `CN(CC(=O)Nc1ccc(Cl)c(C(F)(F)F)c1)CC(=O)NC1CCCCC1` here?
Answer: inconclusive: 14.1 µM [inhibitor, single point]

Question: Which Potency does the source give for `Cc1c(O)nc(SC2CC(=O)N(c3ccccc3)C2=O)[nH]c1=O` (configuration not stated) here?
Answer: inactive

Question: Which Potency does the source give for `CSCc1ccc(C(=O)Nc2ccc(C(N)=O)cc2)cc1` here?
Answer: inconclusive: 11.2 µM [inhibitor, partial curve, poor fit]

Question: Which Potency does the source give for `COc1cccc(NC(=O)c2ccccc2F)c1` here?
Answer: inconclusive: 6.31 µM [inhibitor, partial curve, poor fit]

Question: For `O=C(/C=C/c1ccc2c(c1)OCO2)NCCS(=O)(=O)N1CCN(c2ccc(F)cc2)CC1`, which Potency is on record?
Answer: inconclusive: 12.6 µM [inhibitor, partial curve, poor fit]

Question: With `CCN(CC)c1ccc(/C=C/c2cccc[n+]2C)c(OC)c1` as the compound, how does the Potency read?
Answer: inactive

Question: Which Potency does the source give for `COc1cccc(/C=C/C(=O)OCC(=O)c2ccccc2)c1OC` here?
Answer: inconclusive: 10 µM [inhibitor, single point]

Question: Which Potency does the source give for `O=C(c1ccc(Br)cc1)N(c1ccccn1)C1CCCCC1` here?
Answer: inactive

Question: With `O=C(Nc1ccc2[nH]ccc2c1)c1ccc(F)cc1` as the compound, how does the Potency read?
Answer: active: 0.891 µM

Question: For `Cc1ccccc1Nc1c(-c2ccccn2)nc2ccccn12`, which Potency is on record?
Answer: inconclusive: 12.6 µM [inhibitor, partial curve, poor fit]

Question: For `CCCc1nn(C)c2c1C(c1ccncc1)C(C#N)=C(N)O2` (configuration not stated), which Potency is on record?
Answer: inactive

Question: With `O=C(CN1CCN(c2ccccn2)CC1)NC(=O)NC1CCCCC1` as the compound, how does the Potency read?
Answer: inactive

Question: Which Potency does the source give for `CCOC(=O)c1cc(C#N)c(SCC(=O)Nc2ccc(C(C)=O)cc2)[nH]c1=O` here?
Answer: inactive

From PubChem BioAssay AID540303 (National Center for Advancing Translational Sciences (NCATS), 2011)
